# Experimental data published in the supplement of paper PMC3334620.
# Whole data set: some 33,000 sequences, median “E-score (-0.5 to 0.5)” near -0.0059, cut for the highest 2% near 0.26. Some of the results follow.
# Molecular target: T1, Cin5 (UniProt P40917)
# T1 sequence: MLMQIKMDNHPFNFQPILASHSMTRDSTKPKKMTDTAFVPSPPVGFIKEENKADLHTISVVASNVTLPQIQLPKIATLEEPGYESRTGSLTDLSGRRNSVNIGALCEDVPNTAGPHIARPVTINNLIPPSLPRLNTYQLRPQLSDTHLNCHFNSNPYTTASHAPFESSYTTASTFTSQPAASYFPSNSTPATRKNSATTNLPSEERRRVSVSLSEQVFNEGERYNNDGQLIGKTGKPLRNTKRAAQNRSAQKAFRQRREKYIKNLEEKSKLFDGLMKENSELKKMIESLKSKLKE
# Experiment: PBM E-score (8-mer binding enrichment) (E-score (-0.5 to 0.5)); higher = stronger / more preferred TF binding
# Settings: protein concentration: 100 nM; construct: GST-full length
# Procedure: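 Universal 'all 10-mer' protein binding microarrays (Agilent AMADID 015681) probed with GST-tagged S. cerevisiae TFs (full-length or DBD) made by in vitro transcription/translation (PURExpress), about 100-200 nM. Bound TF was detected with fluorescent anti-GST. Each ungapped 8-mer (which stands for itself and its reverse complement) is scored by the PBM enrichment score (E-score), a modified Wilcoxon-Mann-Whitney statistic from -0.5 to +0.5, computed with the Universal PBM Analysis Suite. Scale: above 0.35 generally sequence-specific binding.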
row,Sequence,PBM E-score
1,TCAATGAA,0.159
2,AGACATAG,0.102
3,AGCGGCTA,-0.0605
4,ATTGCGCC,0.00682
5,CCGCTGAG,0.0353
6,GGGGGGAC,-0.458
7,ACTTGGAC,0.134
8,ACCTTCTC,0.0155
9,ACCTGCCG,-0.128
10,CAGTGATG,-0.00135
11,AAAAAATC,0.102
12,GTCAGGCA,-0.0711
13,ACAAAGAG,-0.0853
14,CAGTCGGC,-0.242
15,ATCTACGG,0.0548
16,CGGATACG,-0.0818
17,CGCGGCAA,0.00803
18,CCTCGTAG,-0.054
19,GTACTTGA,-0.0618
20,ACTACATG,0.0894
21,ATTTCATA,0.223
22,AGTTCGTG,-0.0336
23,CGTTGCTA,0.18
24,CGTGTTGA,-0.0277
25,CTTAACGA,0.0185

# Two neighbouring entries out of the list so far, quoted:
row,Sequence,PBM E-score
14,CAGTCGGC,-0.242
15,ATCTACGG,0.0548

# (cont.)

row,Sequence,PBM E-score
1,AGCTATCG,-0.0505
2,AGCTCACT,-0.00134
3,CCAGCCAA,-0.0854
4,TACCGTGA,-0.0612
5,GAGACGGA,0.0388
6,CTTACATC,0.213
7,ACTGTCAA,-0.0196
8,ATGGTGCA,-0.0439
9,CTTGAGTC,-0.136
10,ATAGAGCG,0.0283
11,ACTTCTCT,-0.0899
12,CTGACTTA,0.298
13,AATTGCCC,0.082
14,AGCAGGCT,-0.218
15,CCAGAACG,-0.0604
16,ACCGGTCA,-0.0331
17,ATCGCCCG,-0.0759
18,GTACGCAC,-0.12
19,GAGTCCAA,-0.00014
20,CCATCGTC,0.0447
21,CACTGGTA,0.0077
22,AATAGAAT,0.106
23,GGTACACC,-0.181
24,ATCACTAG,0.0603
25,CAACAGAC,-0.0114

# Look-ups from the results shown.
# CGTGTTGA | PBM E-score: -0.0277
# CCATCGTC | PBM E-score: 0.0447
# AGTTCGTG | PBM E-score: -0.0336

# Continued.

row,Sequence,PBM E-score
1,TGACGGCA,-0.102
2,AATGTACT,0.208
3,CTAGTCCC,-0.149
4,CAGAAAAC,0.131
5,ACGGCTCG,0.0234
6,GTCAACAC,0.0351
7,CAGCTGTA,-0.174
8,TATTCGAA,0.0697
9,CACCGGTA,-0.123
10,ATCGGTGA,0.103
11,CACATTCG,0.0747
12,ATTACCGA,0.138
13,AGTCCACG,-0.176
14,AGATTATC,0.0833
15,AATGCTCA,0.0368
16,CTCCCTAA,-0.261
17,CCGTTATC,0.00955
18,AGCGAAGG,0.0557
19,GACGGAGC,-0.144
20,ACAATCAA,0.109
21,CCCTAGCG,-0.344
22,AAATGATG,0.207
23,AACGACAA,0.114
24,CCGCTTTA,-0.0452
25,GCCCGAAA,0.0994

row,Sequence,PBM E-score
1,ATAGATTA,0.302
2,CATCGCAG,-0.0752
3,GCCGTCCA,0.0294
4,AGACGCTG,-0.0713
5,GGGTGTTA,-0.0098
6,ATGACCGC,-0.0622
7,CTTTCCGA,0.0435
8,CGCGAACA,0.0739
9,AATTGCTC,-0.0353
10,ACTGATCA,0.17
11,ATGCAACG,-0.0472
12,AGGTATGA,0.128
13,ACAACGTC,-0.0665
14,GGCTTCCA,-0.192
15,ATGATAAC,0.262
16,GATGAGCC,-0.103
17,GGATTCCA,0.151
18,CACGGGTC,-0.167
19,CGCCCCTC,-0.173
20,ATCACATA,0.291
21,CACCATGA,-0.0418
22,CAGATCTA,-0.164
23,GACGGTAC,-0.0824
24,ATGCATAG,-0.086
25,CGCTAAGA,-0.104

# Reprinted at random: four records from the list, in no set order.
row,Sequence,PBM E-score
12,AGGTATGA,0.128
14,GGCTTCCA,-0.192
5,GGGTGTTA,-0.0098
23,GACGGTAC,-0.0824

# Following part

row,Sequence,PBM E-score
1,GCGTAAGC,0.227
2,CCGTGTAG,0.00318
3,CAGCTATA,0.138
4,CGAATCAA,0.243
5,CGCGTGCA,-0.164
6,CTCAGTCC,-0.138
7,CAACCATA,0.153
8,CCTTGCCA,-0.0988
9,ATACTAAG,0.012
10,GAATTCCC,-0.0812
11,CCGAGAAA,0.198
12,ATGCTGCC,-0.00436
13,ACTAGCAG,-0.0148
14,CTGTAGTC,-0.017
15,AGCTCTAC,-0.0194
16,AGGGTCAA,0.134
17,CCAGCAGC,-0.116
18,GGTAATAC,0.168
19,ATAAGTTA,0.186
20,GTCGTAAC,-0.107
21,AGCCCTTA,-0.185
22,ACCGATAA,0.123
23,GAAGCGCA,0.00479
24,GCCTCTAC,-0.247
25,ATAAAAGC,0.127

row,Sequence,PBM E-score
1,TTACCAAA,0.223
2,AGTGGTTC,-0.0524
3,GATGAGGC,-0.153
4,ACGTCAGT,-0.12
5,GACGTATA,-0.035
6,CACGCCAA,-0.0595
7,CACGTCGG,-0.18
8,CAATCGGA,0.157
9,CCTGTACG,-0.161
10,AGTGTCGG,-0.0423
11,CAGGCAGG,-0.124
12,GCCCGCGC,-0.0109
13,AATCGTCA,0.0536
14,ACCGTAGG,-0.362
15,CACCCCTG,-0.126
16,CGGCGACG,-0.0819
17,CGCGTTAA,0.00016
18,CCTATCCG,-0.0857
19,AATCGTGA,0.00493
20,AGAAAAGG,0.00134
21,ATAAACGG,0.11
22,GATGATAC,0.103
23,TACATACA,0.238
24,GCTAATAA,0.0536
25,ACGTTTTG,0.0665

row,Sequence,PBM E-score
1,CGCGGTTA,0.0553
2,GTCTAAAA,-0.162
3,CCGGTGAG,-0.0175
4,GGCGAGCA,-0.0499
5,GGATTGCA,0.0742
6,AAAGGTGA,-0.0471
7,GGGAGATA,-0.0684
8,AGAGAATC,0.0813
9,CGAACACA,0.102
10,CCGATCGC,-0.101
11,TCATCGAA,0.0464
12,AGTATGAT,0.203
13,AGGCACCT,-0.218
14,AATCTGCT,-0.0109
15,AGGTTGCC,-0.129
16,CTCAATCA,0.0973
17,CCTGGCCC,-0.257
18,ACGTAACG,0.214
19,CTAAGTAA,0.0623
20,AGCGCAAG,-0.0811
21,AGTGGGTC,-0.255
22,CTCCGTCA,-0.139
